These results are taken from article PMC3534021, “Structure of the TPR Domain of AIP: Lack of Client Protein Interaction with the C-Terminal α-7 Helix of the TPR Domain of AIP Is Sufficient for Pituitary Adenoma Predisposition” (PLoS ONE, 2012).

Results are given in words; binding and its absence hold for the method and conditions named. For some assays here: Binding seen in cells or lysates may run through a third protein. For some assays here: Sequences can lack the tags named with a protein.

The target in assay [1] is T1, wild-type AIP, Flag-tagged (pCI-neo-AIP-Flag) and Myc-tagged (pcDNA 3.0-Myc-AIP) copies (human), O00170.
T1 chain: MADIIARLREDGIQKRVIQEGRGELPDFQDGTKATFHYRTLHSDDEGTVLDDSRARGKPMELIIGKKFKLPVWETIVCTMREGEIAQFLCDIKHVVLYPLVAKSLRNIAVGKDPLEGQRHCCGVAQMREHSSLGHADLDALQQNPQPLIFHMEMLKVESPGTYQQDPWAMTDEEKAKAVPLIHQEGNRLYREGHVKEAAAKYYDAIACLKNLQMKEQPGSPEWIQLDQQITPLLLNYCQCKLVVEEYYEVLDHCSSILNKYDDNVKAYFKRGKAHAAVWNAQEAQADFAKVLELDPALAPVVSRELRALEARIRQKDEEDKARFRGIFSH
Briefly: co-IP; GH3 cells co-transfected with AIP-Flag and Myc-AIP; lysate (~150 µg protein) with 1 µg TOMM20 peptide; reciprocal immunoprecipitation with anti-Myc or anti-Flag, Protein G Sepharose; blots for Myc and Flag. The conditions noted are these: remark: other sources report otherwise.

Assay [2] has as its target TPR domain (residues 166–330) of human AIP (aryl hydrocarbon receptor interacting protein), wild type (human) (UniProt O00170). Briefly: crystal structure; AIP TPR-domain mixed with peptide at a 1:20 molar ratio; crystals from 1 M ammonium sulphate, 1% PEG 3350, 0.1 M Bis-Tris pH 5.5, 14°C; both purified.

B1: wild-type AIP, Flag-tagged (pCI-neo-AIP-Flag) and Myc-tagged (pcDNA 3.0-Myc-AIP) copies, O00170 1-330 (protein)
chain: T1 chain
Take B1: in assay [1], the binding entry is on record as “no binding”.

B2: TPR domain (residues 166–330) of human AIP (aryl hydrocarbon receptor interacting protein), wild type (domain or fragment, UniProt O00170 166-330, looked up)
chain: DPWAMTDEEKAKAVPLIHQEGNRLYREGHVKEAAAKYYDAIACLKNLQMKEQPGSPEWIQLDQQITPLLLNYCQCKLVVEEYYEVLDHCSSILNKYDDNVKAYFKRGKAHAAVWNAQEAQADFAKVLELDPALAPVVSRELRALEARIRQKDEEDKARFRGIFSH
notes: Residues Asp 172 to Arg 325 were visible in the TOMM20 peptide structure; also called AIP TPR-domain; WT
Regarding B2, in assay [2], the binding result is recorded as “no binding”.
